Data as given in PMC11264944.
Results are given in words; binding and its absence hold for the method and conditions named. Binding seen in cells or lysates may run through a third protein. Some binding calls cover weakened binding; strength is not graded here. For some of these results: Sequences can lack the tags named with a protein.

Protein sequences, listed by entry. Tags and fused reporters are not part of them.
UniProt Q8K4Q0: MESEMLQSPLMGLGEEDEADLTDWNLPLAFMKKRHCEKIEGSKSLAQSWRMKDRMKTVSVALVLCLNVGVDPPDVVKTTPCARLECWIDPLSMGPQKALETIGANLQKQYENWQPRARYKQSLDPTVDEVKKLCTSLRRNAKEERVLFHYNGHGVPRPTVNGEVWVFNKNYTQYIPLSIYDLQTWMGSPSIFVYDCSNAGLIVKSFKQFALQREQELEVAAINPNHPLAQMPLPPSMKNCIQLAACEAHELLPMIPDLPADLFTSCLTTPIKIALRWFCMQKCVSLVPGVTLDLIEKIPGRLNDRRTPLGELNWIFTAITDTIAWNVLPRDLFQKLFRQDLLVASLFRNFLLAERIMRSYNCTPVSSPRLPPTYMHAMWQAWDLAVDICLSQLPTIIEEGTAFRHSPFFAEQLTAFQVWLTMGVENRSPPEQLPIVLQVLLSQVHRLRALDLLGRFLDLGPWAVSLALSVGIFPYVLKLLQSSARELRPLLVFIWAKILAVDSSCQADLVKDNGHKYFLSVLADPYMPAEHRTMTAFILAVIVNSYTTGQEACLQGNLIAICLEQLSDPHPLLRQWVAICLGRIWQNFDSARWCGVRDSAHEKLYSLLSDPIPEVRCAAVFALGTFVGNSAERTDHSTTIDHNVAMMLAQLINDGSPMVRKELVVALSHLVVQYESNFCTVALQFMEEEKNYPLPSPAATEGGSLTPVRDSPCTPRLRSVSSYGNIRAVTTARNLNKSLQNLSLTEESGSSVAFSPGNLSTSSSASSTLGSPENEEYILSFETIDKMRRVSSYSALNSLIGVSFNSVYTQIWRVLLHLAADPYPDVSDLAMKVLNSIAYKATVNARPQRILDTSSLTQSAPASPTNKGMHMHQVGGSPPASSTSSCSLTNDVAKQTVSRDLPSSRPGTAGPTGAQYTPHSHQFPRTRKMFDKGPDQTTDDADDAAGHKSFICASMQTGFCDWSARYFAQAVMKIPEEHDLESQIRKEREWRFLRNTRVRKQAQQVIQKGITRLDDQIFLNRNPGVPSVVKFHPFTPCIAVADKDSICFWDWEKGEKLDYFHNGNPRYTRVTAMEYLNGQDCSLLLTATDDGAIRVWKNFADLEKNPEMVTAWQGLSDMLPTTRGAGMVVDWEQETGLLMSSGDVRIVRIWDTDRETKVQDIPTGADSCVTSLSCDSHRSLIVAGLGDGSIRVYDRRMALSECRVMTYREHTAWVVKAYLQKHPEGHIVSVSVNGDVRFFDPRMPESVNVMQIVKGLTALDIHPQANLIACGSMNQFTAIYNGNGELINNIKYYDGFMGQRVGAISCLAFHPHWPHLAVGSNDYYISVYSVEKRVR

Legend:
[1] = biological target: T1, FLAG-tagged AKAP8L (A-kinase anchor protein 8-like) (UniProt Q9R0L7); assay: co-IP; HA-tagged Raptor and FLAG-tagged AKAP8L overexpressed in BV2 cells, normal glucose; lysis in 0.3% CHAPS, on ice or at 4 °C; immunoprecipitation of HA-Raptor and, in reverse, of FLAG-AKAP8L; Co-IP kit (Absin)
T1 sequence: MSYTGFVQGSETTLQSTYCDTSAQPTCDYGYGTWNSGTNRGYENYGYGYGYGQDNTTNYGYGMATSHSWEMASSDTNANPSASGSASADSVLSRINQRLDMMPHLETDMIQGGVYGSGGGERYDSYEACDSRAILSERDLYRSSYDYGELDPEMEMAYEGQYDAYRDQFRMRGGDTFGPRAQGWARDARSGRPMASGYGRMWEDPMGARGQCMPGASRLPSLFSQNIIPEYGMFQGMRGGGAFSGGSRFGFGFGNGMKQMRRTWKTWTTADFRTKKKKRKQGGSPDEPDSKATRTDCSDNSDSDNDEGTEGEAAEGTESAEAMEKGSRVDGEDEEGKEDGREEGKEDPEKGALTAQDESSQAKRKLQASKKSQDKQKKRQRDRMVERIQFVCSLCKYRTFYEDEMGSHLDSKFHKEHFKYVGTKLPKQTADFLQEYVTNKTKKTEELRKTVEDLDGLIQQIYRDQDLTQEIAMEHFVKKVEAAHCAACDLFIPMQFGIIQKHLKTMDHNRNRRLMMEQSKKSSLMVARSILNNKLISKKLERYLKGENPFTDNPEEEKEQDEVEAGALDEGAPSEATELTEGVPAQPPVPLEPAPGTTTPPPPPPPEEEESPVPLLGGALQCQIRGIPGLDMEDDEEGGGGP

HA-tagged Raptor = HA-tagged Raptor (UniProt Q8K4Q0); assay: as above
[2] = biological target: endogenous Raptor (mouse (endogenous in BV2 cells and primary microglia)) (UniProt Q8K4Q0); assay: co-IP; endogenous AKAP8L and Raptor in microglial cells, control and high glucose (HG) stimulation; which of the two was precipitated is not stated
[3] = biological target: endogenous Raptor (mouse (endogenous in BV2 cells and primary microglia)) (UniProt Q8K4Q0); assay: proximity ligation; Duolink PLA kit; fixed (4% PFA), permeabilised cells; primary antibodies against Raptor and AKAP8L overnight at 4 °C; BV2 cells and primary microglia, control and high glucose (HG)

## HA-tagged Raptor (from UniProt Q8K4Q0 1-1335)
[1]
  binding: binds

B1: FLAG-tagged AKAP8L (A-kinase anchor protein 8-like) (protein, UniProt Q9R0L7 1-642)
chain: T1 sequence
HA-tagged Raptor
  binding: binds

B2: endogenous AKAP8L (A-kinase anchor protein 8-like) (protein, UniProt Q9R0L7 1-642)
chain: T1 sequence
[2]
  binding: binds
[3]
  binding: binds
